PubChem BioAssay AID1259276 | Sanger Institute, 2017
Test: 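Kinase knock-downs that reduce colorectal cancer cell viability alone or with anchor drugs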 (primary screen). Cell system: human C2BBe1 colorectal cancer cells. Knock-down reagent: siRNA pool against human genes. Conditions: DMSO vehicle, or one anchor drug: BYL719 at 1 µM, cetuximab at 5 µg/ml, or trametinib at 10 nM; exposure length not stated. Detection: 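Cell viability as a fraction of non-targeting control wells, mean of replicates, also as a control-based robust z-score, plus a synergy score for each anchor drug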. Direction: viability robust z-score, siRNA alone and viability vs control, siRNA alone: higher = more viable cells after knock-down. Active means: 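Called essential when knock-down alone gives a viability robust z-score below -3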. Calls: active = essential (siRNA alone); inactive = no change (siRNA alone).
Shown is one part, drawn at random, of 794 reagents. Of all reagents, 24 (3%) were called active. 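Calls come only from the siRNA-alone arm; drug synergy scores do not affect them.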 A number with no mark means an inactive call. Viability is capped at 1. Further read-outs or replicates are left out here. The record does not give: the amount of reagent, the time to read-out.

OXSR1 | viability robust z-score, siRNA alone = 0.159; viability vs control, siRNA alone = 0.98
PAK5 | viability robust z-score, siRNA alone = 0.472; viability vs control, siRNA alone = 1
ADCK2 | viability robust z-score, siRNA alone = 0.472; viability vs control, siRNA alone = 1
MAP2K6 | viability robust z-score, siRNA alone = 0.116; viability vs control, siRNA alone = 0.978
CDKN1C | viability robust z-score, siRNA alone = 0.472; viability vs control, siRNA alone = 1
AXL | viability robust z-score, siRNA alone = 0.472; viability vs control, siRNA alone = 1
PXK | viability robust z-score, siRNA alone = 0.472; viability vs control, siRNA alone = 1
GTF2H1 | viability robust z-score, siRNA alone = 0.472; viability vs control, siRNA alone = 1
PDK3 | viability robust z-score, siRNA alone = -2.84; viability vs control, siRNA alone = 0.791
RPS6KA5 | viability robust z-score, siRNA alone = 0.472; viability vs control, siRNA alone = 1
PKIB | viability robust z-score, siRNA alone = -1; viability vs control, siRNA alone = 0.907
PAK6 | viability robust z-score, siRNA alone = 0.406; viability vs control, siRNA alone = 0.996
